This series can be described thus: general procedure: solution-phase peptide synthesis. To be noted: for conjugation yield: conjugation step.

Regarding “2-((2-(((S)-1-((2-(((S)-4-ethyl-8-fluoro-4-hydroxy-3,14-dioxo-3,4,12,14-tetrahydro-1H-pyrano[3′,4′:6,7]indolizino[1,2-b]quinolin-9-yl)amino)-2-oxoethyl)amino)-1-oxo-3-phenylpropan-2-yl)amino)-2-oxoethyl)amino)-2-oxoethan-1-aminium”, the step yield (coupling step) was found to be 88%. For the setting “late stage modification step”, “6-(2,5-dioxo-2,5-dihydro-1H-pyrrol-1-yl)-N-(2-((2-(((S)-1-((2-(((S)-4-ethyl-8-fluoro-4-hydroxy-3,14-dioxo-3,4,12,14-tetrahydro-1H-pyrano[3′,4′:6,7]indolizino[1,2-b]quinolin-9-yl)amino)-2-oxoethyl)amino)-1-oxo-3-phenylpropan-2-yl)amino)-2-oxoethyl)amino)-2-oxoethyl)hexanamide” had a step yield of 40%.

Consider “(2S)-2-(2-(2-aminoacetamido)acetamido)-N-(2-((((3-(((S)-4-ethyl-8-fluoro-4-hydroxy-9-methyl-3,14-dioxo-3,4,12,14-tetrahydro-1H-pyrano[3′,4′:6,7]indolizino[1,2-b]quinolin-11-yl)methyl)-3-azabicyclo[3.1.1]heptan-6-yl)oxy)methyl)amino)-2-oxoethyl)-3-phenylpropanamide”, for which, for the setting “TFA salt”, the conjugation yield is given as 29%. Take “(9H-fluoren-9-yl)methyl ((7S)-1-((3-azabicyclo[3.1.1]heptan-6-yl)oxy)-7-benzyl-3,6,9,12-tetraoxo-2,5,8,11-tetraazatridecan-13-yl)carbamate”: under “late stage modification step”, the step yield was found to be 46%. Same read-out and setting: then “(9H-fluoren-9-yl)methyl (S)-(9-benzyl-1-(3-fluoroazetidin-3-yl)-5,8,11,14-tetraoxo-2-oxa-4,7,10,13-tetraazapentadecan-15-yl)carbamate”, with 54%. In the case of “(9H-fluoren-9-yl)methyl (S)-(12-benzyl-1-(4-nitrophenoxy)-1,8,11,14,17-pentaoxo-2,5-dioxa-7,10,13,16-tetraazaoctadecan-18-yl)carbamate”, the step yield (late stage modification step, from Compound 4.6) was 53%.

In the case of “(S)-2-(1-(2,5-dioxo-2,5-dihydro-1H-pyrrol-1-yl)-12,15-dioxo-3,6,9-trioxa-13,16-diazaoctadecan-18-amido)-N-(1-((S)-4-ethyl-8-fluoro-4-hydroxy-9-methyl-3,14-dioxo-3,4,12,14-tetrahydro-1H-pyrano[3′,4′:6,7]indolizino[1,2-b]quinolin-11-yl)-3,10-dioxo-7-oxa-2,4,9-triazaundecan-11-yl)-3-phenylpropana”, for the setting “coupling step”, the step yield is recorded as 26% yield.

For the substance “(S)-2-(2-(2-aminoacetamido)acetamido)-N-(2-((((1-(((S)-4-ethyl-8-fluoro-4-hydroxy-9-methyl-3,14-dioxo-3,4,12,14-tetrahydro-1H-pyrano[3′,4′:6,7]indolizino[1,2-b]quinolin-11-yl)methyl)-3-fluoroazetidin-3-yl)methoxy)methyl)amino)-2-oxoethyl)-3-phenylpropanamide”, for the setting “TFA salt”, the conjugation yield worked out at 28%. Still for that read-out and setting: the result for “(S)-16-amino-10-benzyl-6,9,12,15-tetraoxo-3-oxa-5,8,11,14-tetraazahexadecyl (((S)-4-ethyl-8-fluoro-4-hydroxy-9-methyl-3,14-dioxo-3,4,12,14-tetrahydro-1H-pyrano[3′,4′:6,7]indolizino[1,2-b]quinolin-11-yl)methyl)carbamate” reads 39%.

Substance “tert-butyl (2-((2-(((S)-1-((2-(((S)-4-ethyl-8-fluoro-4-hydroxy-3,14-dioxo-3,4,12,14-tetrahydro-1H-pyrano[3′,4′:6,7]indolizino[1,2-b]quinolin-9-yl)amino)-2-oxoethyl)amino)-1-oxo-3-phenylpropan-2-yl)amino)-2-oxoethyl)amino)-2-oxoethyl)carbamate” showed a conjugation yield of 17%. On the same count and under the same terms, the result for “tert-butyl (2-((2-(((S)-1-((2-(((S)-4-ethyl-8-fluoro-4-hydroxy-11-(morpholinomethyl)-3,14-dioxo-3,4,12,14-tetrahydro-1H-pyrano[3′,4′:6,7]indolizino[1,2-b]quinolin-9-yl)amino)-2-oxoethyl)amino)-1-oxo-3-phenylpropan-2-yl)amino)-2-oxoethyl)amino)-2-oxoethyl)carbamate” reads 22%. On to “tert-butyl (((S)-9-(2-((S)-2-(2-(2-aminoacetamido)acetamido)-3-phenylpropanamido)acetamido)-4-ethyl-8-fluoro-4-hydroxy-3,14-dioxo-3,4,12,14-tetrahydro-1H-pyrano[3′,4′:6,7]indolizino[1,2-b]quinolin-11-yl)methyl)carbamate”, for which, under “coupling step, TFA salt”, the step yield is reported as 64%.

The record behind these values is patent US20250235548A1 (Zymeworks BC Inc., priority 2022, published 2025).
